The target of the experiment is T1, DERL1 (bovine (endogenous in corpus luteum)) (UniProt Q71SS4).
T1 sequence: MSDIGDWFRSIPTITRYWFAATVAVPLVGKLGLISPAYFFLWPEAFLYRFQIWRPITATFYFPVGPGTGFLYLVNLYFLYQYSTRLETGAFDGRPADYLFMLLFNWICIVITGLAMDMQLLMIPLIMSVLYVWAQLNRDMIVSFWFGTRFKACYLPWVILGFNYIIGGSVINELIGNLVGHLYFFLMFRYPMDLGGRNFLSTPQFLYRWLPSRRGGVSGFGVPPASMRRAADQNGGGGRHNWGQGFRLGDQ
Briefly: co-IP; bovine luteal tissue lysate (100 ug; days 5, 11, 18 of the estrous cycle), precleared, immunoprecipitated with anti-DERL1 antibody and protein A Sepharose CL-4B at 4°C, washed 3 times in lysis buffer with 1% Nonidet-P40; precipitates and supernatants blotted for class I MHC, VIMP and p97.

No constants are given. Whether binding was seen depends on the method and setting. Binding seen in cells or lysates may run through a third protein.

In the case of “VCP-interacting membrane protein (VIMP) (bovine (endogenous in corpus luteum))”, the binding result is “no binding”.

These data come from PMC2920863.
